Source: article PMC9314386
Results are given in words; binding and its absence hold for the method and conditions named. In cells and extracts the contact can be indirect. Some results given as binding are weak or reduced against the parent protein; the word gives no strength. Blank lines part the entries; values can stand above or below the binder they belong to.

Target: T1, myosin phosphatase target subunit 1 (MYPT1) (rat (endogenous in A7R5)) (UniProt Q10728)
T1 sequence: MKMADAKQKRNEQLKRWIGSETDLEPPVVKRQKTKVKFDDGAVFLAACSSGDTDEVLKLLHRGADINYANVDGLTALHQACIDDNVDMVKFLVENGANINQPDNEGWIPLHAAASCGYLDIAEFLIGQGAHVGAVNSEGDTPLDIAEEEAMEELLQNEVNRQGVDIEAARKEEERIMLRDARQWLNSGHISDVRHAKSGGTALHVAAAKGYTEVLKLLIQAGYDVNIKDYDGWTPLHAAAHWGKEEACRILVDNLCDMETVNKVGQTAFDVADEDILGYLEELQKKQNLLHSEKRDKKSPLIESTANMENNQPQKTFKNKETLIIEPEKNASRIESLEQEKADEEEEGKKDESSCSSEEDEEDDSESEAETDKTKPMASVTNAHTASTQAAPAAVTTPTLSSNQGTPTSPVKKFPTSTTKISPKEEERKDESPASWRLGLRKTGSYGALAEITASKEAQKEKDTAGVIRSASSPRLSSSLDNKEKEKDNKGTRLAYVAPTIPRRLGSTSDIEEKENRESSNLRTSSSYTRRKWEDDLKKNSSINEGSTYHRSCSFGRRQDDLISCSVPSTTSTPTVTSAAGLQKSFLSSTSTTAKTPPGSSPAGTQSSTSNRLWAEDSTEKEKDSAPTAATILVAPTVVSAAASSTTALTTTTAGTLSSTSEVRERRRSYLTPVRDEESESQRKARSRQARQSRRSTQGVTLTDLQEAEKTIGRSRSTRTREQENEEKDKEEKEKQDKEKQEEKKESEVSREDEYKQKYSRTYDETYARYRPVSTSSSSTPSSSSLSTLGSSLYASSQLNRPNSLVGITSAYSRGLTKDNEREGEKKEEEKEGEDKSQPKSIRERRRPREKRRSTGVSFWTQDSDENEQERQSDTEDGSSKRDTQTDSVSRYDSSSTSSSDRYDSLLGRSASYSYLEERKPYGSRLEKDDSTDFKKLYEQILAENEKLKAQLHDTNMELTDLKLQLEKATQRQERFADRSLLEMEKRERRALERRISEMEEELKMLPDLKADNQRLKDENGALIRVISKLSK
Experiment: co-IP; immunoprecipitation with an anti-MYPT1 antibody from lysates of A7R5 cells treated with MG132 (20 uM) and lotusine (0.5 uM, 24 h); immunoblot of the immunoprecipitate for ubiquitin, SIAH1 and SIAH2

binding: binds
B1: SIAH1 E3 ligase (enzyme, UniProt Q920M9 1-282)
chain: MSRQTATALPTGTSKCPPSQRVPALTGTTASNNDLASLFECPVCFDYVLPPILQCQSGHLVCSNCRPKLTCCPTCRGPLGSIRNLAMEKVANSVLFPCKYASSGCEITLPHTEKAEHEELCEFRPYSCPCPGASCKWQGSLDAVMPHLMHQHKSITTLQGEDIVFLATDINLPGAVDWVMMQSCFGFHFMLVLEKQEKYDGHQQFFAIVQLIGTRKQAENFAYRLELNGHRRRLTWEATPRSIHEGIATAIMNSDCLVFDTSIAQLFAENGNLGINVTISMC

binding: binds
B2: SIAH2 E3 ligase (enzyme, UniProt Q8R4T2 1-325)
chain: MSRPSSTGPSANKPCSKQPPPPQTPHAPSPAAPPAAATISAAGPGSSAVPAAAAVISGPGAGGGAGPVSPQHHELTSLFECPVCFDYVLPPILQCQAGHLVCNQCRQKLSCCPTCRGALTPSIRNLAMEKVASAVLFPCKYATTGCSLTLHHTEKPEHEDICEYRPYSCPCPGASCKWQGSLEAVMSHLMHAHKSITTLQGEDIVFLATDINLPGAVDWVMMQSCFGHHFMLVLEKQEKYEGHQQFFAIVLLIGTRKQAENFAYRLELNGNRRRLTWEATPRSIHDGVAAAIMNSDCLVFDTAIAHLFADNGNLGINVTISTCCQ
